Results as given in patent US20060183889A1, “Alkyl phosphine detergent products and extraction processes” (priority 2005, published 2006).

Test: Compatibility with protein detection reagents
Conditions: detergent present

CCCCCCCCCCP(C)(C)=O [APO-10, Dimethyldecylphosphine oxide]
interference with detection of Chloramphenicol Acetyl Transferase (CAT) by Lumio protein detection agent: without interference
interference with detection of beta-galactosidase by InVision protein detection agent: without interference
